# Measured values: PubChem BioAssay AID901 (National Center for Advancing Translational Sciences (NCATS), 2007)
# This is one part of the list. Further columns of the screen follow, without active or inactive calls. The list favours compounds with an active or inconclusive main result. The note in brackets gives the kind of curve behind each potency; many fits are weak.
# Test: qHTS Assay for Identifying the Cell-Membrane Permeable IMPase Inhibitors
# Details: CHO-M1 cells, IP1 accumulation, HTRF TR-FRET ratio; measured here: donor channel 620 nm AC50
row,SMILES,AC50
1,C=CCSc1nnc2nc3[nH]c4c(C)cccc4c3nn12,"0.0631 µM [rising, full curve, poor fit]"
2,CCn1c(C(=O)N2CCCC(C(=O)O)C2)cc2sccc21 (configuration not stated),"31.6 µM [falling, single point]"
3,CCN(Cc1ccccc1)C(=O)CSc1nc(C)cc(C)c1C#N,"35.5 µM [falling, single point]"
4,COc1ccc(-c2csc(NC(=O)c3ccco3)n2)cc1,"0.631 µM [falling, full curve]"
5,CCOC(=O)C1=C(C)N(C)C(C)=C(C(=O)OCC)C1c1ccccc1,"0.02 µM [falling, full curve]"
6,S=C1N(c2ccccc2)C(c2ccccc2)N2CCCN12 (configuration not stated),"0.251 µM [falling, full curve, poor fit]"
7,COc1ccc2c(c1)c(=O)oc1cc3occ(C(C)(C)C)c3cc12,"25.1 µM [rising, partial curve]"
8,Cc1nc(N=Nc2cc(S(=O)(=O)O)c3cc([N+](=O)[O-])cc(S(=O)(=O)O)c3c2)c(COP(=O)(O)O)c(C=O)c1O,"12.6 µM [falling, partial curve, poor fit]"
9,Cc1noc(C)c1S(=O)(=O)N1CCCC(C(=O)Nc2cccnc2)C1 (configuration not stated),"0.00316 µM [falling, full curve]"
10,CCOc1ccc2cc(S(=O)(=O)n3ccnc3C)ccc2c1,"0.1 µM [falling, full curve, poor fit]"
11,O=C(NCc1ccco1)c1cc2nc(-c3cccs3)cc(C(F)(F)F)n2n1,"0.126 µM [rising, full curve, poor fit]"
12,C=C(C)COc1ccc(-c2ncncc2Oc2ccc(OC)cc2)c(O)c1,"12.6 µM [falling, partial curve]"
13,CCCCNC(=O)c1ccc2c(=O)n(CCCOCC)c(=S)[nH]c2c1,"0.0398 µM [rising, full curve, poor fit]"
14,NC(=S)c1cc2ccc(O)cc2oc1=O,"12.6 µM [rising, partial curve]"
15,Cc1cccc(N(C(=O)CNC(=O)c2ccco2)C(C(=O)NC2CCCC2)c2ccncc2)c1 (configuration not stated),"31.6 µM [falling, single point]"
16,On1onc2c3cc(-c4ccccc4)nc3ccc21,"12.6 µM [falling, single point]"
17,COc1ccccc1N1C(=O)CCC1(C#N)c1ccccc1 (configuration not stated),"5.62 µM [rising, single point]"
18,O=C(CCS(=O)(=O)c1cc(Br)cc2c1N(C(=O)C1CC1)CC2)NCc1ccco1,"14.1 µM [falling, partial curve, poor fit]"
19,Cc1cc(F)ccc1S(=O)(=O)Nc1ccccc1C(=O)Nc1ccc2[nH]c(=O)[nH]c2c1,"3.98 µM [rising, single point]"
20,Cc1ccc(C(=O)C2=C(O)C(=O)N(c3ncccn3)C2c2ccc(Cl)cc2)o1 (configuration not stated),"12.6 µM [rising, partial curve]"
21,Cc1nn(-c2ccc(F)cc2)c2sc(C(=O)O)cc12,"0.631 µM [falling, single point]"

# Single entries from the entries so far:
# AC50 with CCN(Cc1ccccc1)C(=O)CSc1nc(C)cc(C)c1C#N reads 35.5 µM [falling, single point]
# AC50 with CCOc1ccc2cc(S(=O)(=O)n3ccnc3C)ccc2c1 reads 0.1 µM [falling, full curve, poor fit]

# The list goes on:

row,SMILES,AC50
1,Nc1ncnc2c1nc(Sc1ccc(Cl)cc1)n2[C@@H]1O[C@H]2COP(=O)(O)O[C@@H]2[C@H]1O,"3.16 µM [falling, single point]"
2,Cc1ccccc1Cn1c2ccccc2c2cn[nH]c(=O)c21,"3.98 µM [rising, full curve, poor fit]"
3,COc1cc(N2CCCC2)c(OC)cc1/C=C(/C#N)c1ccc(F)cc1,"10 µM [falling, partial curve]"
4,COc1ccc2cc3[n+](cc2c1OC)CCc1cc2c(cc1-3)OCO2,"15.8 µM [falling, single point]"
5,Cc1[nH]c2ccccc2c1C(=O)CN1C(=O)NC(C)(c2ccc(Cl)cc2Cl)C1=O (configuration not stated),"0.126 µM [rising, full curve, poor fit]"
6,O=C(CSc1nnc(-c2ccco2)n1Cc1ccco1)Nc1ccccc1,"0.631 µM [falling, full curve, poor fit]"
7,COc1ccc(-c2cc3ccc(OCc4nn[nH]n4)cc3oc2=O)cc1,"28.2 µM [rising, partial curve]"
8,COC(=O)c1scc(C)c1NC(=O)Nc1ccccc1,"2.82 µM [falling, full curve, poor fit]"
9,CC(C)C1Oc2ccccc2N(CC(=O)N(Cc2ccncc2)Cc2ccco2)C1=O (configuration not stated),"0.501 µM [falling, full curve]"
10,Cc1ccc(S(=O)(=O)NC(C)C(c2cccs2)N2CCN(c3ccccc3)CC2)cc1 (configuration not stated),"0.794 µM [falling, full curve]"
11,COc1ccc(/C=N/NC(=O)C(=O)NCC2CCCO2)cc1 (configuration not stated),"25.1 µM [falling, single point]"
12,CCOC(=O)c1cc(CC)sc1NC(=O)c1ccc(N2CCOCC2)c([N+](=O)[O-])c1,"0.0251 µM [rising, full curve, poor fit]"
13,CC(C(=O)N1CCCCC1)n1sc2ccccc2c1=O (configuration not stated),"3.98 µM [falling, partial curve]"
14,Cc1ccc2c(c1)N(CC(=O)N(Cc1ccccn1)Cc1ccco1)C(=O)C(C(C)C)O2 (configuration not stated),"0.158 µM [falling, full curve]"
15,c1ccc2[nH]c(CSc3nc4ccccc4s3)nc2c1,"0.0501 µM [rising, full curve]"
16,COc1ccc(-c2cc(C(=O)Nc3c(C)nn(Cc4ccccc4Cl)c3C)no2)cc1OC,"1 µM [falling, full curve, poor fit]"
17,COc1ccccc1CNc1n[nH]c(NCc2ccccc2OC)n1,"12.6 µM [falling, partial curve, poor fit]"
18,CCCCN(CCCC)CC1OCc2ccccc2CO1,"1 µM [falling, partial curve]"
19,Cn1cccc1C(=O)NC(=O)COC(=O)Cc1coc2ccc3ccccc3c12,"0.0631 µM [rising, full curve, poor fit]"
20,O=C(O)COc1ccc(S(=O)(=O)NCCc2ccccc2)cc1,"5.62 µM [falling, full curve]"
21,NS(=O)(=O)c1ccc(CCNc2nc(CN3CCCCC3)nc3sc4c(c23)CCC4)cc1,"0.01 µM [falling, full curve, poor fit]"
